The supplement of paper PMC8728848
The other results are listed elsewhere or left out.

How the values were obtained:
Assay in all cases: glycan array binding signal (z-score within array); higher = stronger binding
Settings in all cases: glycan notation: IUPAC condensed, linker removed
[1] = biological target: Fuc(a1-2)Gal(b1-4)[Fuc(a1-3)]GlcNAc(b1-3)GalNAc
Method in brief: (§1)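 The binding signal is a Z-score computed within each array. Data were drawn from 3228 arrays in the Consortium for Functional Glycomics database, restricted to those with a known protein sequence. Scores were averaged over arrays of the same protein sequence at different concentrations or buffers, and over linkers, and negative values can be taken as non-binding.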

[2] = biological target: Fuc(a1-2)Gal(b1-4)[Fuc(a1-3)]GlcNAc(b1-3)[Neu5Ac(a2-6)Gal(b1-4)GlcNAc(b1-6)]Gal(b1-4)Glc
Method in brief: as §1

[3] = biological target: Fuc(a1-2)Gal3S(b1-4)GlcNAc
Method in brief: as §1

[4] = biological target: Fuc(a1-2)Gal6S(b1-3)GlcNAc
Method in brief: as §1

[5] = biological target: Fuc(a1-2)Gal6S(b1-3)GlcNAc6S
Method in brief: as §1

Fuc(a1-2)Gal6S(b1-4)Glc = biological target: Fuc(a1-2)Gal6S(b1-4)Glc
Method in brief: as §1

[6] = biological target: Fuc(a1-2)Gal6S(b1-4)Glc6S
Method in brief: as §1

[7] = biological target: Fuc(a1-2)Gal6S(b1-4)GlcNAc
Method in brief: as §1

Fuc(a1-2)[Gal(a1-3)]Gal = biological target: Fuc(a1-2)[Gal(a1-3)]Gal
Method in brief: as §1

[8] = biological target: Fuc(a1-2)[Gal(a1-3)]Gal(b1-3)GalNAc
Method in brief: as §1

[9] = biological target: Fuc(a1-2)[Gal(a1-3)]Gal(b1-3)GalNAc(b1-3)Gal(a1-4)Gal(b1-4)Glc
Method in brief: as §1

[10] = biological target: Fuc(a1-2)[Gal(a1-3)]Gal(b1-3)GlcNAc
Method in brief: as §1

[11] = biological target: Fuc(a1-2)[Gal(a1-3)]Gal(b1-3)GlcNAc(b1-2)Man(a1-3)[Fuc(a1-2)[Gal(a1-3)]Gal(b1-3)GlcNAc(b1-2)Man(a1-6)]Man(b1-4)GlcNAc(b1-4)GlcNAc
Method in brief: as §1

[12] = biological target: Fuc(a1-2)[Gal(a1-3)]Gal(b1-3)GlcNAc(b1-2)Man(a1-3)[Fuc(a1-2)[Gal(a1-3)]Gal(b1-3)GlcNAc(b1-2)Man(a1-6)]Man(b1-4)GlcNAc(b1-4)[Fuc(a1-6)]GlcNAc
Method in brief: as §1

[13] = biological target: Fuc(a1-2)[Gal(a1-3)]Gal(b1-3)GlcNAc(b1-3)GalNAc
Method in brief: as §1

[14] = biological target: Fuc(a1-2)[Gal(a1-3)]Gal(b1-3)GlcNAc(b1-6)GalNAc
Method in brief: as §1

[15] = biological target: Fuc(a1-2)[Gal(a1-3)]Gal(b1-4)Glc
Method in brief: as §1

[16] = biological target: Fuc(a1-2)[Gal(a1-3)]Gal(b1-4)GlcNAc
Method in brief: as §1

[17] = biological target: Fuc(a1-2)[Gal(a1-3)]Gal(b1-4)GlcNAc(b1-2)Man
Method in brief: as §1

[18] = biological target: Fuc(a1-2)[Gal(a1-3)]Gal(b1-4)GlcNAc(b1-2)Man(a1-3)[Fuc(a1-2)[Gal(a1-3)]Gal(b1-4)GlcNAc(b1-2)Man(a1-6)]Man(b1-4)GlcNAc(b1-4)GlcNAc
Method in brief: as §1

[19] = biological target: Fuc(a1-2)[Gal(a1-3)]Gal(b1-4)GlcNAc(b1-2)Man(a1-3)[Fuc(a1-2)[Gal(a1-3)]Gal(b1-4)GlcNAc(b1-2)Man(a1-6)]Man(b1-4)GlcNAc(b1-4)[Fuc(a1-6)]GlcNAc
Method in brief: as §1

[20] = biological target: Fuc(a1-2)[Gal(a1-3)]Gal(b1-4)GlcNAc(b1-3)GalNAc
Method in brief: as §1

[21] = biological target: Fuc(a1-2)[Gal(a1-3)]Gal(b1-4)GlcNAc(b1-3)[Fuc(a1-2)[Gal(a1-3)]Gal(b1-4)GlcNAc(b1-6)]GalNAc
Method in brief: as §1

[22] = biological target: Fuc(a1-2)[Gal(a1-3)]Gal(b1-4)GlcNAc(b1-6)GalNAc
Method in brief: as §1

[23] = biological target: Fuc(a1-2)[Gal(a1-3)]Gal(b1-4)[Fuc(a1-3)]Glc
Method in brief: as §1

[24] = biological target: Fuc(a1-2)[Gal(a1-3)]Gal(b1-4)[Fuc(a1-3)]GlcNAc
Method in brief: as §1

[25] = biological target: Fuc(a1-2)[Gal(a1-3)]Gal(b1-4)[Fuc(a1-3)]GlcNAc(b1-3)GalNAc
Method in brief: as §1

[26] = biological target: Fuc(a1-2)[Gal(a1-4)]Gal(b1-4)GlcNAc
Method in brief: as §1

[27] = biological target: Fuc(a1-2)[GalNAc(a1-3)]Gal
Method in brief: as §1

[28] = biological target: Fuc(a1-2)[GalNAc(a1-3)]Gal(b1-3)GalNAc(a1-3)[Fuc(a1-2)]Gal(b1-4)GlcNAc
Method in brief: as §1

[29] = biological target: Fuc(a1-2)[GalNAc(a1-3)]Gal(b1-3)GalNAc(b1-3)Gal(a1-4)Gal(b1-4)Glc
Method in brief: as §1

[30] = biological target: Fuc(a1-2)[GalNAc(a1-3)]Gal(b1-3)GlcNAc
Method in brief: as §1

[31] = biological target: Fuc(a1-2)[GalNAc(a1-3)]Gal(b1-3)GlcNAc(b1-2)Man(a1-3)[Fuc(a1-2)[GalNAc(a1-3)]Gal(b1-3)GlcNAc(b1-2)Man(a1-6)]Man(b1-4)GlcNAc(b1-4)GlcNAc
Method in brief: as §1

[32] = biological target: Fuc(a1-2)[GalNAc(a1-3)]Gal(b1-3)GlcNAc(b1-2)Man(a1-3)[Fuc(a1-2)[GalNAc(a1-3)]Gal(b1-3)GlcNAc(b1-2)Man(a1-6)]Man(b1-4)GlcNAc(b1-4)[Fuc(a1-6)]GlcNAc
Method in brief: as §1

[33] = biological target: Fuc(a1-2)[GalNAc(a1-3)]Gal(b1-3)GlcNAc(b1-3)GalNAc
Method in brief: as §1

[34] = biological target: Fuc(a1-2)[GalNAc(a1-3)]Gal(b1-3)GlcNAc(b1-6)GalNAc
Method in brief: as §1

[35] = biological target: Fuc(a1-2)[GalNAc(a1-3)]Gal(b1-4)Glc
Method in brief: as §1

[36] = biological target: Fuc(a1-2)[GalNAc(a1-3)]Gal(b1-4)GlcNAc
Method in brief: as §1

[37] = biological target: Fuc(a1-2)[GalNAc(a1-3)]Gal(b1-4)GlcNAc(b1-2)Man
Method in brief: as §1

[38] = biological target: Fuc(a1-2)[GalNAc(a1-3)]Gal(b1-4)GlcNAc(b1-2)Man(a1-3)[Fuc(a1-2)[GalNAc(a1-3)]Gal(b1-4)GlcNAc(b1-2)Man(a1-6)]Man(b1-4)GlcNAc(b1-4)GlcNAc
Method in brief: as §1

[39] = biological target: Fuc(a1-2)[GalNAc(a1-3)]Gal(b1-4)GlcNAc(b1-2)Man(a1-3)[Fuc(a1-2)[GalNAc(a1-3)]Gal(b1-4)GlcNAc(b1-2)Man(a1-6)]Man(b1-4)GlcNAc(b1-4)[Fuc(a1-6)]GlcNAc
Method in brief: as §1

[40] = biological target: Fuc(a1-2)[GalNAc(a1-3)]Gal(b1-4)GlcNAc(b1-3)Gal(b1-4)GlcNAc
Method in brief: as §1

[41] = biological target: Fuc(a1-2)[GalNAc(a1-3)]Gal(b1-4)GlcNAc(b1-3)Gal(b1-4)GlcNAc(b1-3)Gal(b1-4)GlcNAc
Method in brief: as §1

[42] = biological target: Fuc(a1-2)[GalNAc(a1-3)]Gal(b1-4)GlcNAc(b1-3)GalNAc
Method in brief: as §1

[43] = biological target: Fuc(a1-2)[GalNAc(a1-3)]Gal(b1-4)GlcNAc(b1-3)[Fuc(a1-2)[GalNAc(a1-3)]Gal(b1-4)GlcNAc(b1-6)]GalNAc
Method in brief: as §1

B1: Flo1 (Saccharomyces cerevisiae), P32768 (protein)
chain: SGATEACLPAGQRKSGMNINFYQYSLKDSSTYSNAAYMAYGYASKTKLGSVGGQTDISIDYNIPCVSSSGTFPCPQEDSYGNWGCKGMGACSNSQGIAYWSTDLFGFYTTPTNVTLEMTGYFLPPQTGSYTFKFATVDDSAILSVGGATAFNCCAQQQPPITSTNFTIDGIKPWGGSLPPNIEGTVYMYAGYYYPMKVVYSNAVSWGTLPISVTLPDGTTVSDDFEGYVYSFDDDLSQSNCTVPDPSNY
- glycan array binding signal (z-score) [1]: 1.41
- glycan array binding signal (z-score) [2]: 0.56
- glycan array binding signal (z-score) [3]: -0.517
- glycan array binding signal (z-score) [4]: -0.605
- glycan array binding signal (z-score) [5]: -0.099
- glycan array binding signal (z-score) (Fuc(a1-2)Gal6S(b1-4)Glc): 0.6
- glycan array binding signal (z-score) [6]: 0.252
- glycan array binding signal (z-score) [7]: -0.204
- glycan array binding signal (z-score) (Fuc(a1-2)[Gal(a1-3)]Gal): -0.228
- glycan array binding signal (z-score) [8]: 0.232
- glycan array binding signal (z-score) [9]: -0.189
- glycan array binding signal (z-score) [10]: -0.078
- glycan array binding signal (z-score) [11]: 0.215
- glycan array binding signal (z-score) [12]: -0.239
- glycan array binding signal (z-score) [13]: 2.18
- glycan array binding signal (z-score) [14]: -0.595
- glycan array binding signal (z-score) [15]: -0.433
- glycan array binding signal (z-score) [16]: 0.062
- glycan array binding signal (z-score) [17]: -0.048
- glycan array binding signal (z-score) [18]: 0.13
- glycan array binding signal (z-score) [19]: 3.01
- glycan array binding signal (z-score) [20]: 0.111
- glycan array binding signal (z-score) [21]: 0.353
- glycan array binding signal (z-score) [22]: -0.155
- glycan array binding signal (z-score) [23]: -0.047
- glycan array binding signal (z-score) [24]: 0.247
- glycan array binding signal (z-score) [25]: 1.15
- glycan array binding signal (z-score) [26]: -0.409
- glycan array binding signal (z-score) [27]: -0.514
- glycan array binding signal (z-score) [28]: 0.065
- glycan array binding signal (z-score) [29]: -0.387
- glycan array binding signal (z-score) [30]: 0.004
- glycan array binding signal (z-score) [31]: -0.156
- glycan array binding signal (z-score) [32]: 0.532
- glycan array binding signal (z-score) [33]: 0.66
- glycan array binding signal (z-score) [34]: -0.467
- glycan array binding signal (z-score) [35]: 0.017
- glycan array binding signal (z-score) [36]: -0.195
- glycan array binding signal (z-score) [37]: -0.124
- glycan array binding signal (z-score) [38]: 0.189
- glycan array binding signal (z-score) [39]: 0.142
- glycan array binding signal (z-score) [40]: -0.404
- glycan array binding signal (z-score) [41]: -0.255
- glycan array binding signal (z-score) [42]: 0.751
- glycan array binding signal (z-score) [43]: 0.029
